Laboratory results as given in US20130171141A1, “COMBINATION OF HDAC INHIBITORS WITH THROMBOCYTOPENIA DRUGS” (NOVARTIS AG, priority 2010, published 2013).
For at least one compound, name, drawing or mass did not settle the structure.

Legend:
[1] = test system: platelet count; assay: Compound III with eltrombopag in Hodgkin's lymphoma patient; format: in vivo, human; conditions: eltrombopag given after platelet fall under compound III, Example 1
Experimental: (§1) A patient having Hodgkin's lymphoma is given the recommend dosage of compound III. […] A patient having Hodgkin's lymphoma is tested for thrombocytopenia. Patient is found to have a low blood cell count or a biomarker for thrombocytopenia. Patient is put on a regimen of compound III together with eltrombopag.

[2] = test system: platelet count; assay: Compound III with eltrombopag in multiple myeloma patient; format: in vivo, human; conditions: eltrombopag given after platelet fall under compound III, Example 3
Experimental: as §1, with “patient having multiple myeloma patient is given” for “patient having Hodgkin's lymphoma is given”

CC1=NN(c2ccc(C)c(C)c2)C(=O)/C1=N\Nc1cccc(-c2cccc(C(=O)O)c2)c1O [eltrombopag]
patient's platelet blood count [1]: begins to rise to an acceptable level
patient's platelet blood count [2]: begins to rise to an acceptable level
